Results deposited as PubChem BioAssay AID493246 (Drosophila RNAi Screening Center, 2011).

- Purpose: 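Identify essential fly genes by loss of cell viability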 (primary screen)
- System: Drosophila Kc and S2R+ cells
- Reagents: long dsRNA against Drosophila genes
- Detection: 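Raw, unnormalised count of remaining cells in each well; per-plate z-scores of cell number underlie the calls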
- Direction: Kc cell number and S2R+ cell number: higher = more cells remaining
- Hit rule: 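Active when the per-plate z-score of cell number is 3 or more in the direction of fewer cells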
In all, the deposit lists about 21,000 reagents; this is an unselected part of those with a known target gene and a result. Of all reagents, 429 (2%) are marked active. 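Values are raw and not normalised between plates; calls rest on per-plate z-scores that were not deposited.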 The numbers tell different reagents against one gene apart. Not stated in the record: the amount of reagent, the time to read-out.

With knock-down of CG11279, the screen gave Kc cell number, rep 1 = 1.38e6; Kc cell number, rep 2 = 1.38e6; S2R+ cell number, rep 1 = 1.20e6; S2R+ cell number, rep 2 = 1.31e6; inactive.
After knock-down of Cyp6t2Psi (pseudo), the record shows Kc cell number, rep 1 = 6.11e5; S2R+ cell number, rep 1 = 9.47e5; inactive.
After knock-down of Hrb87F (Heterogeneous nuclear ribonucleoprotein at 87F) the results were Kc cell number, rep 1 = 1.54e6; Kc cell number, rep 2 = 1.55e6; S2R+ cell number, rep 1 = 1.08e6; S2R+ cell number, rep 2 = 1.22e6; inactive.
Against eIF3c (eukaryotic translation initiation factor 3 subunit c) the deposit lists Kc cell number, rep 1 = 1.26e6; Kc cell number, rep 2 = 1.38e6; S2R+ cell number, rep 1 = 8.00e5; S2R+ cell number, rep 2 = 1.01e6; inactive.
After knock-down of Alp7 (Alkaline phosphatase 7), the record shows Kc cell number, rep 1 = 1.36e6; Kc cell number, rep 2 = 1.59e6; S2R+ cell number, rep 1 = 1.25e6; S2R+ cell number, rep 2 = 4.50e5; inactive.
After knock-down of CG2202 the results were Kc cell number, rep 1 = 1.89e6; Kc cell number, rep 2 = 1.84e6; S2R+ cell number, rep 1 = 1.06e6; S2R+ cell number, rep 2 = 1.17e6; inactive.
For ERp44 (Endoplasmic reticulum protein 44), the values are Kc cell number, rep 1 = 6.78e5; S2R+ cell number, rep 1 = 9.54e5; inactive.
Depletion of Drep4 (DNA fragmentation factor-related protein 4) gave: Kc cell number, rep 1 = 1.59e6; Kc cell number, rep 2 = 1.86e6; S2R+ cell number, rep 1 = 1.20e6; S2R+ cell number, rep 2 = 1.36e6; inactive.
For Kank #1, the entry reads Kc cell number, rep 1 = 1.48e6; Kc cell number, rep 2 = 1.46e6; S2R+ cell number, rep 1 = 9.99e5; S2R+ cell number, rep 2 = 1.13e6; inactive.
After knock-down of Kank #2 the results were Kc cell number, rep 1 = 1.39e6; Kc cell number, rep 2 = 1.43e6; S2R+ cell number, rep 1 = 9.78e5; S2R+ cell number, rep 2 = 9.53e5; inactive.
For Cht4 (Chitinase 4), the values are Kc cell number, rep 1 = 1.67e6; Kc cell number, rep 2 = 1.76e6; S2R+ cell number, rep 1 = 1.28e6; S2R+ cell number, rep 2 = 4.89e5; inactive.
CG7330 #1 scored Kc cell number, rep 1 = 1.41e6; Kc cell number, rep 2 = 1.68e6; S2R+ cell number, rep 1 = 1.41e6; S2R+ cell number, rep 2 = 1.51e6; inactive.
For CG7330 #2, the entry reads Kc cell number, rep 1 = 1.66e6; Kc cell number, rep 2 = 1.93e6; S2R+ cell number, rep 1 = 1.38e6; S2R+ cell number, rep 2 = 1.52e6; inactive.
